From the supplement of paper PMC10689618
Where a name gives a salt, the structure may show the parent alone. Some of the results follow. Single values are uncertain, as repeats are few or missing.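 Labelled rat cortical synaptosomes were engulfed by primary human fetal astrocytes. Engulfment equaled a red/green ratio, corrected for calcein live-cell signal and normalized to the plate median. Compounds were toxic when calcein dropped over 30%, and reduced phagocytosis when below 70% of the median above 5 µM.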

Tests used:
Conditions in all cases: 24 h
[1] = tested on: Human fetal astrocytes; assay: loss of total cells relative to no-compound high-control median (toxicity); higher = more toxic (fewer cells)
[2] = tested on: Human fetal astrocytes; assay: as above; remark: listed apart in the source
[3] = tested on: Human fetal astrocytes; assay: synaptosome phagocytosis (pHrodo/calcein intensity ratio) relative to plate median of data wells; higher = more phagocytosis
[4] = tested on: Human fetal astrocytes; assay: as above; remark: listed apart in the source

Row | SMILES | loss of total cells ([1]; 1.39 µM) | loss of total cells ([1]; 2.78 µM) | loss of total cells ([1]; 5.56 µM) | loss of total cells ([1]; 11.11 µM) | loss of total cells ([1]; 22.22 µM) | loss of total cells ([2]; 1.39 µM) | loss of total cells ([2]; 2.78 µM) | loss of total cells ([2]; 5.56 µM) | loss of total cells ([2]; 11.11 µM) | loss of total cells ([2]; 22.22 µM) | synaptosome phagocytosis ([3]; 1.39 µM) | synaptosome phagocytosis ([3]; 2.78 µM) | synaptosome phagocytosis ([3]; 5.56 µM) | synaptosome phagocytosis ([3]; 11.11 µM) | synaptosome phagocytosis ([3]; 22.22 µM) | synaptosome phagocytosis ([4]; 1.39 µM) | synaptosome phagocytosis ([4]; 2.78 µM) | synaptosome phagocytosis ([4]; 5.56 µM) | synaptosome phagocytosis ([4]; 11.11 µM) | synaptosome phagocytosis ([4]; 22.22 µM)
1 | COc1ccc(OC)c(C(O)C(C)N)c1 (stereo not given) [Methoxamine hydrochloride] | -11.8% | -7.7% | 17.4% | -11.4% | 4.7% | -27.4% | -18% | -12.9% | -10.2% | 1.1% | 110% | 112% | 95.4% | 104% | 105% | 112% | 103% | 89.5% | 121% | 121%
2 | C=CCc1cc(OC)c2c(c1OC)OCO2 | – | – | – | – | – | 2.5% | 6.9% | -62.3% | 2.1% | 17.4% | 89.5% | 125% | 0% | 117% | 115% | – | – | – | – | –
3 | NC(=O)c1cc([N+](=O)[O-])cc([N+](=O)[O-])c1 | – | – | – | – | – | 7.4% | -13.2% | -7% | 3.7% | -24.6% | 90.8% | 56.2% | 121% | 109% | 86% | – | – | – | – | –
4 | CC[C@@H](C)C(=O)O[C@H]1[C@H](O)[C@H]2[C@@H](CN3C[C@@H](C)CC[C@H]3[C@@]2(C)O)[C@@H]2C[C@]34O[C@]5(O)[C@@H](OC(=O)[C@@](C)(O)CC)CC[C@@]3(C)[C@@H]5[C@@H](OC(C)=O)[C@@H](OC(C)=O)[C@H]4[C@@]21O | – | – | – | – | – | -0.4% | -4.7% | 23.2% | -6.3% | -1.5% | 105% | 84.3% | 105% | 118% | 133% | – | – | – | – | –
5 | Cc1ccc(/N=C/N(C)/C=N/c2ccc(C)cc2C)c(C)c1 | – | – | – | – | – | -39.5% | -15.9% | -9.9% | 28.5% | 6.5% | 98.8% | 80.5% | 73.8% | 130% | 102% | – | – | – | – | –
6 | CCN1C[C@]2(OC(=O)c3ccccc3NC(C)=O)CC[C@H](OC)[C@@]34[C@@H]2C[C@@H]([C@@H]13)[C@@]1(O)C[C@H](OC)[C@H]2C[C@@H]4[C@]1(O)[C@H]2OC | – | – | – | – | – | -25.4% | 10.5% | -14.7% | 15.5% | 21.5% | 88.3% | 104% | 104% | 131% | 154% | – | – | – | – | –
7 | CN(CC[C@H](N)CC(=O)N[C@H]1C=C[C@H](n2ccc(N)nc2=O)O[C@@H]1C(=O)O)C(=N)N | – | – | – | – | – | -4.1% | -11.2% | -11% | 11.5% | 3% | 87% | 98.8% | 94.7% | 70.8% | 54.5% | – | – | – | – | –
8 | CN1C[C@H](C(=O)N[C@]2(C)O[C@@]3(O)[C@@H]4CCCN4C(=O)[C@H](Cc4ccccc4)N3C2=O)C[C@@H]2c3cccc4[nH]cc(c34)C[C@H]21 [Dihydroergotamine methanesulfonate] | 15.5% | 0% | 6.6% | 6.7% | 4% | 8.6% | -11.2% | -8.4% | -5.5% | -8.2% | 98.8% | 95.4% | 119% | 90% | 84.1% | 128% | 87.6% | 94.6% | 129% | 85.8%
9 | O=[N+]([O-])c1cc([As](=O)(O)O)ccc1O | – | – | – | – | – | 10.4% | 0.3% | -0.7% | 3.2% | 12.5% | 102% | 106% | 118% | 101% | 114% | – | – | – | – | –
